{"source": "patent US11771735B2", "about": "“Composition for improving or preventing nonalcoholic fatty liver” (KOHJIN LIFE SCIENCES CO., LTD., priority 2015, dated 2023)", "system": "Mice (C57/B6J) fed with high-fat food", "conditions": "all groups compared; glutathione 6 and 60 mg/kg/day", "text": "Mice (C57/B6J, 8 weeks old male) were divided into 4 groups (5 animals each), and the first group (DB) was freely fed with ordinary food (CertifiedDiet “MF” manufactured by Oriental Yeast Co., ltd.). The second group (HFD) was freely fed with high-fat food (High Fat Diet 32, manufactured by CLEA Japan, Inc.), […].\nWhen the mouse was 20 weeks old, the body weight, the liver weight, the serum aspartate aminotransferase (AST), the alanine aminotransferase (ALT), the serum triglyceride (TG), the free fatty acid value (FFA) and the total cholesterol value (T-cho) were measured."}
{"smiles": "N[C@@H](CCC(=O)N[C@@H](CS)C(=O)NCC(=O)O)C(=O)O", "note": "[glutathione]", "values": [{"measurement": "consumption amount of feed", "value": "no significant difference"}, {"measurement": "consumption amount of water", "value": "no significant difference"}]}
